Data on one molecule can be found in paper PMC11095200.

The target in the experiment is T1, steroidogenic acute regulatory protein (StAR) (UniProt P51557).
T1 sequence: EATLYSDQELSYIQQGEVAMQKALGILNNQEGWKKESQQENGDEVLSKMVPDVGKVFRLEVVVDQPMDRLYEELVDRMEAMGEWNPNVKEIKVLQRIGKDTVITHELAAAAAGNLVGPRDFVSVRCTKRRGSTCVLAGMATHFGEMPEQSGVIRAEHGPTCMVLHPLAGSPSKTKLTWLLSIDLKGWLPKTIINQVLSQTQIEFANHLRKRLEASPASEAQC
Briefly: co-IP; Y1 cells with the indicated plasmids; lysis buffer 0.5% Nonidet P‐40, 5 mM EDTA, 5 mM EGTA in PBS; beads conjugated with indicated antibodies, 4 °C, 6–8 h; immunoblotting. (In general: A western blot detects proteins with antibodies after separation by electrophoresis.)

These are yes or no findings as the source states them, for the method shown. Binding seen in cells or lysates may run through a third protein. Some entries that bind do so weakly or less than the wild type.

B1: 14‐3‐3γ adapter protein (protein, UniProt P61982 1-247)
chain: MVDREQLVQKARLAEQAERYDDMAAAMKNVTELNEPLSNEERNLLSVAYKNVVGARRSSWRVISSIEQKTSADGNEKKIEMVRAYREKIEKELEAVCQDVLSLLDNYLIKNCSETQYESKVFYLKMKGDYYRYLAEVATGEKRATVVESSEKAYSEAHEISKEHMQPTHPIRLGLALNYSVFYYEIQNAPEQACHLAKTAFDDAIAELDTLNEDSYKDSTLIMQLLRDNLTLWTSDQQDDDGGEGNN
In the case of B1, the binding result was “binds”.
